Data reported in PMC9460513, “The 5′-phosphate enhances the DNA-binding and exonuclease activities of human mitochondrial genome maintenance exonuclease 1 (MGME1)”.
Construct, isoform or probe ends are uncertain for at least one entry. A weaker result is weaker than the reference pair of the same experiment. Tags and fusion partners may be left off the protein sequences shown.

Target: T1, MGME1 (Homo sapiens) (UniProt Q9BQP7)
T1 sequence (looked up, limits assumed): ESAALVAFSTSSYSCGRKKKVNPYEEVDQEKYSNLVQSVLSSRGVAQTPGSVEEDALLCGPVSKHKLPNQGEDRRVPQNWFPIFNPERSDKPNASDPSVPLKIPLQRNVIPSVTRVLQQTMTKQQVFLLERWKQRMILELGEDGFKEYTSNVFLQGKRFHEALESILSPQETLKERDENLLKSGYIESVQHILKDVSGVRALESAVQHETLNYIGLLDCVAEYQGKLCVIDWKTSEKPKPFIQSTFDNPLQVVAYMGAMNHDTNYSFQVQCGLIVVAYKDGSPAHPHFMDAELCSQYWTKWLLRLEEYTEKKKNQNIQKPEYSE
Test: EMSA
Conditions: 10 mM EDTA, EMSA: 1 uM ssDNA, 20 mM Hepes pH 8.0, 100 mM NaCl, 1 mM DTT, room temperature 15 min, gel 0.35x TBE at 4 C, recombinant protein, protein details: His-SUMO tag removed by Ulp1, label: 3'-6FAM, single-stranded DNA

| Sequence | binding result (higher MGME1 needed for detectable complex) | binding result (lower complex yield than T20(5')) |
| --- | --- | --- |
| TTTTTTTTTT [T10(3')] | binds more weakly |  |
| TTTTTTTTTTTTTTTTTTTT [T20(3')] |  | binds more weakly |
